Experimental data: article PMC8184751, “Proline/arginine dipeptide repeat polymers derail protein folding in amyotrophic lateral sclerosis” (Nature Communications, 2021)
Results are given in words; binding and its absence hold for the method and conditions named.

Amino acid sequences for entries named in this document (tags omitted). Residues count along the entry.
UniProt P62937, residues 2-164: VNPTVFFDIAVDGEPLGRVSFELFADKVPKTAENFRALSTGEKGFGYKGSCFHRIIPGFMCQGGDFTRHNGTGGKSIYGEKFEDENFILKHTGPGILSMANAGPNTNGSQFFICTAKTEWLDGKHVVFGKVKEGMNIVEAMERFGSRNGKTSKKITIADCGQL

Target: T1, prolyl isomerase PPIA (human, UniProt P62937 2-164)
T1 construct: human PPIA (peptidyl-prolyl cis-trans isomerase A, cyclophilin A); gene cloned into a modified pET28a vector; 15N-labeled for the NMR titrations, unlabeled for ITC, crystallography and folding assays; source: E. coli BL21(DE3), purified (Ni-NTA, TEV cleavage, Superdex 75); 15N-labeled in M9 minimal media for NMR
Experiment: condition: eightfold excess of GR20 (320 µM on 40 µM PPIA); NMR titration; 40 µM 15N-labeled PPIA titrated with repeat polymer from 0 to 320 µM in five steps; 1H-15N HSQC at 298 K; 25 mM HEPES, 100 mM NaCl, 2 mM DTT, pH 7.4; Kd from the attenuation of the cross-peak of Arg55 (equation for slow exchange); both purified

binding: no binding
Binder: GRGRGRGRGRGRGRGRGRGRGRGRGRGRGRGRGRGRGRGR (acetylated at the N-terminus, amidated at the C-terminus) [20-dipeptide polymer GR20]
